# Some of the results follow. These are further read-outs of the screen, such as a control signal, another cell line or another target. No call is given for them. Compounds called inactive in the main read-out are mostly missing here. The note in brackets gives the kind of curve behind each potency; many fits are weak.
# Assay: qHTS Assay to Find Inhibitors of Chronic Active B-Cell Receptor Signaling
# Conditions: ABC-DLBCL IkBa-CBG/CBR reporter, luminescence ratio (green luciferase fused to IkBa over red control in TMD8 lymphoma cells), 4 h
# Outline: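 Concentration-response series (up to 46 uM) were applied to TMD8 dual-reporter cells for 4 h at 37C with doxycycline. Green/red ratio, after filter-overlap correction, defined %Activity; red signal alone was normalised to basal cells and zero luminescence.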
# [1] = measured here: CBR red luminescence, cell number
# [2] = measured here: IkBa-CBG green luminescence
Compound,AC50 [1],AC50 [2]
Cc1ccc(Nc2nc(Cl)nc(NC(C)(C)C)n2)cc1,"1.78 µM [falling, partial curve, poor fit]",–
CCN(C(=O)COC(=O)c1cc([N+](=O)[O-])ccc1N1CCOCC1)c1ccccc1,"1.16 µM [rising, full curve]","23.1 µM [falling, partial curve, poor fit]"
O=C1NCCCCC1NS(=O)(=O)c1ccc(F)c(F)c1 (stereo unspecified),"11.2 µM [rising, partial curve, poor fit]",–
COc1cc(OC)cc(-c2sc3ccc(OC)cc3c2-c2ccc(OCCN3CCCCC3)cc2)c1,–,"6.51 µM [falling, partial curve, poor fit]"
COc1ccc(-c2cccc3c2NC(=O)C3=O)cc1OC,"18.4 µM [falling, partial curve]","20.6 µM [falling, single point]"
CC1CCc2c(sc3nc(CSc4ncn[nH]4)[nH]c(=O)c23)C1 (stereo unspecified),"9.2 µM [falling, partial curve]",–
COc1cc(CN(C)CC2CCCN(CCc3ccccc3F)C2)cc(Cl)c1OC (stereo unspecified),"35.5 µM [falling, single point]",–
O=C(CN(c1ccc(F)cc1)S(=O)(=O)c1ccc2c(c1)OCCO2)Nc1ccccc1,"3.66 µM [falling, partial curve, poor fit]",–
CCN1CC2=C(OC(N)=C(C#N)C2c2ccccc2)/C(=C\c2ccccc2)C1 (stereo unspecified),"8.2 µM [falling, partial curve]",–
Cc1ccc2[nH]c3c(c2c1)CCC3=O,"1.41 µM [rising, full curve]",–
O=[N+]([O-])c1ccc(-c2nc(NCC3CCCO3)c3ccccc3n2)cc1 (stereo unspecified),"35.5 µM [falling, single point]",–
C#CCOCCOCCOCCNc1nc(N2CCN(C(=O)CCCCCCCCCCNC(=O)[C@@H](CCC(=O)O)n3cc(CCCCCN)nn3)CC2)nc(N2CCN(C(=O)CCCCCCCCCCNC(=O)[C@H]([C@@H](C)CC)n3cc(CCCCCN)nn3)CC2)n1,"29.1 µM [falling, single point]",–
Cc1cc(OCCCCCNCCO)cc(C)c1Cl,"10 µM [falling, partial curve]",–
Cc1nnc2ccc(-c3cccc(NC(=O)Cc4cccs4)c3)nn12,"6.31 µM [rising, partial curve, poor fit]",–
CCCCNC(=S)N/N=C1\CCCCc2ccccc21,"29.1 µM [rising, single point]",–
CCc1noc(C)c1C(=O)NNC(=O)c1cc(OC)c(OC)c(OC)c1,"29.1 µM [rising, single point]",–
C/C(=N\NC(=O)c1cccc(C)c1)c1ccc(N2CCOCC2)cc1,"14.6 µM [falling, partial curve]",–
COc1ccccc1/C=C/C(=O)Nc1cccc(C(C)=O)c1,"10 µM [falling, partial curve]",–
CC(C)c1nnc(NC(=O)c2cccnc2)s1,"8.2 µM [falling, single point]",–
c1ccc(-c2ccc(CN3CCN(c4ncccn4)CC3)cc2)cc1,"5.01 µM [rising, partial curve, poor fit]",–
CCOC(=O)c1cn(Cc2ccccc2)nn1,"6.51 µM [rising, partial curve]",–

Compound,AC50 [1],AC50 [2]
CC(=O)Oc1c(Cl)cc(Cl)cc1/C=C/c1ccc2ccccc2n1,"0.282 µM [rising, full curve, poor fit]",–
CC1CC(C)CN(c2nc(N(C)c3ccccc3)nc(N)c2[N+](=O)[O-])C1 (stereo unspecified),"35.5 µM [rising, single point]",–
CCS(=O)(=O)c1ccc(Sc2nncn2C)c([N+](=O)[O-])c1,"28.2 µM [falling, single point]",–
CCOc1ccc(-c2nnc(N3CCOCC3)c3ccccc23)cc1,"35.5 µM [rising, single point]",–
COc1ccc(OCC(O)CN2C(=O)c3ccccc3C2=O)cc1 (stereo unspecified),"35.5 µM [rising, single point]",–
O=C(CSc1cccc2cccnc12)N/N=C/c1cccc(O)c1,"1.41 µM [falling, full curve, poor fit]",–
CCCCn1nc2cc(C(=O)NCc3ccc4c(c3)OCO4)ccc2c1OCC,"23.1 µM [rising, partial curve, poor fit]",–
COc1ccc(C(=O)COC(=O)c2ccc(NC(C)=O)cc2)cc1[N+](=O)[O-],"3.98 µM [rising, partial curve, poor fit]",–
CCOC(=O)Nc1ccc2c(CN3CCN(S(=O)(=O)c4ccc(C(C)C)cc4)CC3)cc(=O)oc2c1,"29.1 µM [rising, single point]",–
CN=C(Nc1ccccc1)SC1CC(=O)N(c2ccc(C(=O)OC)cc2)C1=O (stereo unspecified),"35.5 µM [falling, single point]",–
CCCCN(C(=O)CSc1nnnn1C)c1c(N)n(Cc2ccccc2)c(=O)[nH]c1=O,"6.31 µM [rising, single point]",–
Cc1nn(Cc2ccc(C(=O)N3c4ccc(F)cc4CCC3C)o2)c(C)c1Br (stereo unspecified),"29.1 µM [falling, single point]",–
COc1ccc(-c2nn(-c3ccccc3)cc2CO)cc1OC,"5.62 µM [rising, partial curve, poor fit]",–
Cc1c(C)n(C)c2ccc(C(=O)NCc3cccs3)cc12,"29.1 µM [falling, single point]",–
O=C(Cn1cnc2sc(-c3ccccc3)cc2c1=O)NCCc1ccccc1,"29.1 µM [rising, single point]",–
COc1ccc(S(=O)(=O)N(C)C[C@@H]2Oc3ccc(NC(=O)Nc4c(C)noc4C)cc3C(=O)N([C@H](C)CO)C[C@@H]2C)cc1,"16.4 µM [falling, single point]",–
Cc1ccc(NC(=O)c2cnc3ccccc3n2)cc1C,"0.562 µM [rising, full curve, poor fit]",–
CSCCC(NC(=O)CCC(=O)OCC(=O)[C@@]1(O)CCC2[C@@H]3CCC4=CC(=O)C=C[C@]4(C)C3[C@@H](O)C[C@@]21C)C(=O)O (stereo partly specified),"6.31 µM [rising, partial curve, poor fit]",–
COc1ccc(Br)cc1/C=N/NC(=O)c1cc(OC)c(OC)c(OC)c1,–,"18.4 µM [falling, single point]"
O=c1oc(-c2ccc(F)cc2)nc2ccsc12,"2.91 µM [falling, full curve]",–
Cc1ccc(S(=O)(=O)CCC(=O)Nc2cccc(S(=O)(=O)N3CCCCCC3)c2)cc1,"11.6 µM [falling, single point]",–

Compound,AC50 [1],AC50 [2]
COc1cc(S(=O)(=O)n2ccnc2)ccc1Br,"2 µM [rising, partial curve]",–
COc1cccc(CN(C)CC(=O)Nc2cccc(C(F)(F)F)c2)c1OC,"35.5 µM [rising, partial curve, poor fit]",–
O=Cc1s/c(=N\S(=O)(=O)c2ccccc2)n(CCCCl)c1Cl,"35.5 µM [falling, single point]","5.62 µM [falling, single point]"
COc1ccc(CCNc2nc3c(c(=O)n(C)c(=O)n3C)n2C)cc1OC,"0.13 µM [falling, full curve]",–
O=C(NC(=S)Nc1ccc(N2CCOCC2)cc1)c1cccc(Cl)c1,"4.11 µM [rising, full curve, poor fit]",–
CC(=O)Nc1sc(N/N=C\c2cccc(Cl)c2)nc1-c1cccs1,"23.1 µM [falling, single point]",–
CN(C)c1ccc(-c2cc([C@H]3[C@@H]4C=CCC[C@@]4(C)C(=O)N3Cc3ccccc3)ccc2F)cc1,"5.62 µM [rising, single point]",–
CCOCCOC(=O)c1[nH]c2c(c1C)C(=O)CC(c1ccccc1)C2 (stereo unspecified),"2.51 µM [rising, full curve, poor fit]","2.82 µM [falling, full curve]"
CCCCN(CC)CCNC(=O)c1cc2c(-c3ccccc3F)nn(C)c2s1,"35.5 µM [falling, single point]",–
CCC/C=N/NC(=O)c1ccc(F)cc1,"10 µM [falling, partial curve]",–
Cc1ccc(-n2nc(C)c3c(C)c(CCC(=O)NCCCOC(C)C)c(C)nc32)cc1,"15.8 µM [rising, single point]",–
Cc1ccc(NC(=O)c2cccs2)cc1NC(=O)c1ccc(F)cc1,"35.5 µM [rising, partial curve, poor fit]",–
CN(C)S(=O)(=O)c1ccc(C(=O)NCCSc2ccccc2)cc1,"23.1 µM [rising, single point]",–
CCOC(=O)c1cc(=O)n(Cc2ccccc2C)c2ccccc12,"11.6 µM [falling, single point]",–
Cn1cc(CN2CCCC(C(=O)Nc3cccc(-c4cc5ccccc5[nH]4)c3)C2)cn1 (stereo unspecified),"11.2 µM [falling, partial curve]",–
CC1(C)COC(/C=C/c2ccc([N+](=O)[O-])cc2)=N1,"16.4 µM [falling, partial curve]",–
COc1c(C)cc(C(=O)C2CCCN(Cc3cnc(N4CCOCC4)s3)C2)cc1C (stereo unspecified),"35.5 µM [falling, single point]",–
CCOC(=O)Cn1c(CN(Cc2ccccc2)Cc2ccccc2)nc2c1c(=O)n(C)c(=O)n2C,"14.1 µM [falling, single point]",–
Cc1nc(Br)c(Br)c(C)c1Br,"1.41 µM [falling, partial curve, poor fit]",–
Cc1ccc(C(=O)NNC(=O)c2cccs2)cc1,"17.8 µM [falling, single point]",–

# Copied from the list.
# CCOCCOC(=O)c1[nH]c2c(c1C)C(=O)CC(c1ccccc1)C2 (stereo unspecified) | AC50 [2]: 2.82 µM [falling, full curve]
# O=[N+]([O-])c1ccc(-c2nc(NCC3CCCO3)c3ccccc3n2)cc1 (stereo unspecified) | AC50 [1]: 35.5 µM [falling, single point]
# O=C(CN(c1ccc(F)cc1)S(=O)(=O)c1ccc2c(c1)OCCO2)Nc1ccccc1 | AC50 [1]: 3.66 µM [falling, partial curve, poor fit]
# O=C1NCCCCC1NS(=O)(=O)c1ccc(F)c(F)c1 (stereo unspecified) | AC50 [1]: 11.2 µM [rising, partial curve, poor fit]

# Reference: PubChem BioAssay AID493014 (National Center for Advancing Translational Sciences (NCATS), 2011)
